Experimental data: PubChem BioAssay AID602203 (INSERM, 2012)
Aim: 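Genes whose knock-down alters cisplatin killing of lung cancer cells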 (follow-up of hits). System: human A549 lung cancer cells. Reagent: siRNA pair against human genes. Treatment: cisplatin at a dose killing half of control-siRNA cells, given 48 h after transfection. Measured: 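Two siRNAs per gene scored +1 protective, -1 sensitizing, 0 if toxic by LDH or growth-reducing by WST-1; cisplatin given 48 h later at 50% control kill; scores summed, mean death shift versus control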. Reading the numbers: summed siRNA score for cisplatin death: higher = more siRNAs reduced cisplatin-induced cell death; change in cisplatin death versus control: higher = fewer cells died than in control. Active means: In these data the active calls have summed siRNA score for cisplatin death at about -3 or lower, or at about 3 or higher.
The deposit covers 999 reagents; this is a part drawn at random. In the full data, 85 (8.5%) got an active call. 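Unclear how single-siRNA scores of -1, 0 or +1 give the printed -4 to 4 range; calls lie near -3 or 3 and beyond.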 Not stated in the record: the amount of reagent, the time to read-out, the dose of the treatment.

summed siRNA score for cisplatin death | change in cisplatin death versus control (percentage points) | Outcome | gene knocked down
2 | – | inactive | DAPK2 (death associated protein kinase 2)
0 | – | inactive | HSD17B14 (hydroxysteroid 17-beta dehydrogenase 14)
-3 | -17.4 | active | BCL2L1 (BCL2 like 1)
-2 | – | inactive | CUL3 (cullin 3)
-1 | – | inactive | AGPAT2 (1-acylglycerol-3-phosphate O-acyltransferase 2)
0 | – | inactive | H1-1 (H1.1 linker histone, cluster member)
-2 | – | inactive | NSMAF (neutral sphingomyelinase activation associated factor)
-1 | – | inactive | UBQLN4 (ubiquilin 4)
1 | – | inactive | SERPINB8 (serpin family B member 8)
0 | – | inactive | KRT1 (keratin 1)
-1 | – | inactive | LOC221875
2 | – | inactive | OR2A25 (olfactory receptor family 2 subfamily A member 25)
1 | – | inactive | LOC339997
1 | – | inactive | CCDC125 (coiled-coil domain containing 125)
1 | – | inactive | CNTNAP5 (contactin associated protein family member 5)
1 | – | inactive | DPP10-AS1 (DPP10 antisense RNA 1)
1 | – | inactive | SLC11A2
-1 | – | inactive | DDI1 (DDI proteasomal shuttling factor 1)
-1 | – | inactive | NTNG1 (netrin G1)
-2 | – | inactive | P4HA2 (prolyl 4-hydroxylase subunit alpha 2)
0 | – | inactive | CDK16 (cyclin dependent kinase 16)
-3 | -14.9 | active | RAC2 (Rac family small GTPase 2)
-1 | – | inactive | ABCD1 (ATP binding cassette subfamily D member 1)
-1 | – | inactive | SLC2A11
1 | – | inactive | CDC42 (cell division cycle 42)
0 | – | inactive | ANKRD20A19P (ankyrin repeat domain 20 family member A19, pseudogene)
-2 | – | inactive | NECAP2 (NECAP endocytosis associated 2)
-1 | – | inactive | KDELR3 (KDEL endoplasmic reticulum protein retention receptor 3)
0 | – | inactive | LINC00898 (long independently transcribed non-coding RNA 898)
2 | – | inactive | GOLT1A (golgi transport 1A)
-2 | – | inactive | KCNJ6 (potassium inwardly rectifying channel subfamily J member 6)
2 | – | inactive | CBLB (Cbl proto-oncogene B)
-1 | – | inactive | LOC441781
3 | 6.47 | active | RAB40A (RAB40A, member RAS oncogene family)
1 | – | inactive | CASC2 (cancer susceptibility 2)
-4 | -10.3 | active | HIRIP3 (HIRA interacting protein 3)
-3 | -13.7 | active | IRAG2 (inositol 1,4,5-triphosphate receptor associated 2)
0 | – | inactive | OCLM (retired record)
0 | – | inactive | FCGBP (Fc gamma binding protein)
-1 | – | inactive | IGF2R (insulin like growth factor 2 receptor)
1 | – | inactive | EMP1 (epithelial membrane protein 1)
1 | – | inactive | CD244 (CD244 molecule)
0 | – | inactive | SPON2 (spondin 2)
0 | – | inactive | AGO3 (argonaute RISC catalytic component 3)
2 | – | inactive | LINC01011 (long independently transcribed non-coding RNA 1011)
0 | – | inactive | CHD2 (chromodomain helicase DNA binding protein 2)
1 | – | inactive | IRF2 (interferon regulatory factor 2)
-2 | – | inactive | PSMC3IP (PSMC3 interacting protein)
-1 | – | inactive | RNF103 (ring finger protein 103)
1 | – | inactive | C10orf55 (chromosome 10 putative open reading frame 55)
0 | – | inactive | RBL1 (RB transcriptional corepressor like 1)
-1 | – | inactive | PRIM1 (DNA primase subunit 1)
4 | 12.7 | active | APAF1 (apoptotic peptidase activating factor 1)
0 | – | inactive | LOC440397
-2 | – | inactive | LOC388954
-1 | – | inactive | HSD17B11 (hydroxysteroid 17-beta dehydrogenase 11)
-1 | – | inactive | FOXF2 (forkhead box F2)
-1 | – | inactive | TMEM161B (transmembrane protein 161B)
1 | – | inactive | RPL3L (ribosomal protein L3 like)
1 | – | inactive | TRPV6
0 | – | inactive | P2RX2 (purinergic receptor P2X 2)
0 | – | inactive | LHX1 (LIM homeobox 1)
-1 | – | inactive | CCT8 (chaperonin containing TCP1 subunit 8)
1 | – | inactive | OR5H1 (olfactory receptor family 5 subfamily H member 1)
1 | – | inactive | STK26 (serine/threonine kinase 26)
1 | – | inactive | EVC (EvC ciliary complex subunit 1)
1 | – | inactive | CFAP54 (cilia and flagella associated protein 54)
0 | – | inactive | ATOX1 (antioxidant 1 copper chaperone)
0 | – | inactive | SMIM32 (small integral membrane protein 32)
1 | – | inactive | GPATCH2L (G-patch domain containing 2 like)
-2 | – | inactive | FBP1 (fructose-bisphosphatase 1)
-2 | – | inactive | STAT6 (signal transducer and activator of transcription 6)
2 | – | inactive | GLIPR1L1 (GLIPR1 like 1)
0 | – | inactive | PLXNB1 (plexin B1)
2 | – | inactive | LOC152078
2 | – | inactive | NR2F1 (nuclear receptor subfamily 2 group F member 1)
2 | – | inactive | LOC441759
0 | – | inactive | JAM3 (junctional adhesion molecule 3)
0 | – | inactive | CREBL2 (cAMP responsive element binding protein like 2)
0 | – | inactive | MED27 (mediator complex subunit 27)
0 | – | inactive | UBAP2 (ubiquitin associated protein 2)
0 | – | inactive | JARID2 (jumonji and AT-rich interaction domain containing 2)
-1 | – | inactive | PPP2R1B (protein phosphatase 2 scaffold subunit Abeta)
0 | – | inactive | UCK2 (uridine-cytidine kinase 2)
1 | – | inactive | DDOST
-1 | – | inactive | ARFIP2 (ARF interacting protein 2)
-3 | -11.7 | active | IL6R (interleukin 6 receptor)
-1 | – | inactive | CLCN3 (Cl-/H+ antiporter 3)
0 | – | inactive | TLN2 (talin 2)
-2 | – | inactive | PPIG (peptidylprolyl isomerase G)
-1 | – | inactive | HNF4G (hepatocyte nuclear factor 4 gamma)
0 | – | inactive | LOC440101
-2 | – | inactive | HYI (hydroxypyruvate isomerase (putative))
1 | – | inactive | LOC440442
4 | 10.8 | active | COX7C (cytochrome c oxidase subunit 7C)
-2 | – | inactive | NEDD8 (NEDD8 ubiquitin like modifier)
1 | – | inactive | BAZ1A (bromodomain adjacent to zinc finger domain 1A)
2 | – | inactive | KRT10 (keratin 10)
1 | – | inactive | CNN1 (calponin 1)
1 | – | inactive | LOC441470
1 | – | inactive | LOC390386
1 | – | inactive | PEX39 (peroxisomal biogenesis factor 39)
0 | – | inactive | SLC25A43
2 | – | inactive | DPY19L3-DT (DPY19L3 divergent transcript)
-2 | – | inactive | RUVBL1 (RuvB like AAA ATPase 1)
1 | – | inactive | SETDB2 (SET domain bifurcated histone lysine methyltransferase 2)
0 | – | inactive | TRAPPC4 (trafficking protein particle complex subunit 4)

Look-ups from the entries so far:
Value for BAZ1A (bromodomain adjacent to zinc finger domain 1A) under “summed siRNA score for cisplatin death”: 1
Value for H1-1 (H1.1 linker histone, cluster member) under “summed siRNA score for cisplatin death”: 0
For “summed siRNA score for cisplatin death”, AGO3 (argonaute RISC catalytic component 3) is entered as 0
Value for IRAG2 (inositol 1,4,5-triphosphate receptor associated 2) in “summed siRNA score for cisplatin death”: -3
For “summed siRNA score for cisplatin death”, CFAP54 (cilia and flagella associated protein 54) shows 1
LOC388954, summed siRNA score for cisplatin death = -2
